The list shows a part of the results. Shown are side measurements of this screen, not its main read-out; they come without a call. The list favours compounds with an active or inconclusive main result. Words in brackets tell the shape of the fitted curve; partial curves, single points and poor fits give uncertain potencies.
Experiment: qHTS Assay for Lipid Storage Modulators in Drosophila S3 Cells;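 on cell number change: cells counted by Cell Tracker Red CMTPX staining in the red channel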
Details: BODIPY lipid droplet fluorescence, 18-24 h; for cell number change: measured here: cell count max response, cells fed with added oleic acid
Method in brief: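 Drosophila S3 cells loaded with oleic acid (400 uM, as added) and compounds at several concentrations; lipid droplets imaged by 488-nm laser-scanning cytometry, 500–530 nm intensity and object ratio to cell channel. Percent activity normalized to 20 uM Triacsin C.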

[1] = measured here: lipid fluorescence (Fed channel) AC50, cells fed with added oleic acid
[2] = measured here: cell number channel AC50, cells fed with added oleic acid

Row | Compound | cell number change [%] | AC50 [1] | AC50 [2]
1 | COc1ccc(-c2cc(C(F)(F)F)n3nc(C(=O)N4CCOCC4)c(Cl)c3n2)cc1 | 2.78 | 2.06 µM [rising, partial curve] | –
2 | Cc1cc(C)cc(NC(=O)NN2C(C)CCCC2C)c1 (stereo unspecified) | -33.7 | 29.1 µM [falling, single point] | 29.1 µM [falling, single point]
3 | Cc1ccc(N2CCN(C(=O)NC3CCCCC3)CC2)c(C)c1 | -13.2 | 25.9 µM [falling, single point] | –
4 | CC(C)(C#CCN1CCCCC1)OCCOC(c1ccccc1)c1ccccc1 | -15.4 | 6.51 µM [rising, partial curve] | 6.51 µM [rising, partial curve]
5 | CCN1CCc2c(OCC(=O)Nc3ccccc3)cccc2C1=O | -11.4 | – | –
6 | COc1ccc(N2C3=[N+](CCCC3)CC2(C)O)cc1 (stereo unspecified) | -1.8 | 23.1 µM [falling, partial curve] | –
7 | COc1ccc2nc3c(c(-c4ccccc4)c2c1)CCC3 | 15.6 | 2.06 µM [rising, partial curve] | –
8 | O=C(N/N=C\c1ccccc1OCc1ccccc1)c1ccco1 | -49.6 | – | 8.2 µM [falling, partial curve]
9 | Cc1cc(OCCCCOc2ccc(C#N)cc2)ccc1[N+](=O)[O-] | -15 | 0.731 µM [rising, partial curve, poor fit] | –
10 | CCOc1ccc(C(=O)NCc2cccnc2)cc1[N+](=O)[O-] | 9.5 | 31.6 µM [rising, single point] | –
11 | CN(C)CC(=O)N1c2ccccc2Sc2ccc(Cl)cc21 | 22.8 | 0.0411 µM [rising, full curve, poor fit] | –
12 | CCN1CCN(C(c2cccs2)C(C)NS(=O)(=O)c2ccc(C)cc2)CC1 (stereo unspecified) | 12.5 | 0.517 µM [falling, single point] | –
13 | COc1ccccc1NC(=O)c1ccccc1SC | – | 2.91 µM [rising, partial curve] | 2.91 µM [rising, partial curve]
14 | CC(=O)Cn1ncc(N2CCOCC2)c(Cl)c1=O | 12.6 | 5.8 µM [rising, single point] | –
15 | NC(=O)C(=O)NN=C1CCC(c2ccccc2)CC1 (stereo unspecified) | 5.57 | 16.4 µM [falling, single point] | –
16 | Cc1cccc(N2CCN(C(=S)NCCc3ccccc3)CC2)c1C | 43 | 4.61 µM [rising, partial curve] | 18.4 µM [rising, partial curve]
17 | Cc1cc(C(=O)N2CC(C)CC(C)C2)c(C)o1 (stereo unspecified) | -17.4 | 6.51 µM [falling, single point] | –
18 | CCCC1=C(C(=O)OCC)C(c2sccc2C)n2ncnc2N1 (stereo unspecified) | 13.2 | 2.31 µM [falling, single point] | –
19 | CCN(CC)CCCNC(=S)N1CCC(c2nc3ccccc3[nH]2)CC1 | 15.8 | 14.6 µM [rising, partial curve] | –
20 | COC(=O)c1sccc1NS(=O)(=O)c1ccc(F)cc1F | 16 | 11.6 µM [rising, partial curve, poor fit] | –
21 | O=[N+]([O-])c1cccnc1N1CCCCC1 | 12.1 | 8.2 µM [rising, partial curve] | –

Row | Compound | cell number change [%] | AC50 [1] | AC50 [2]
22 | C=CCn1c(SCC(=O)c2ccc(OC)cc2)nnc1-c1ccc2c(c1)OCO2 | 6.71 | 1.16 µM [rising, partial curve] | –
23 | Cc1ncn(C23CC4CC(CC(O)(C4)C2)C3)n1 | -2.33 | 0.0184 µM [falling, full curve, poor fit] | –
24 | O=C(/C=C1\SC(=O)N(CC(=O)Nc2ccc(F)cc2)C1=O)Nc1ccc(Cl)cc1 | -1 | 0.231 µM [falling, full curve, poor fit] | 0.00411 µM [rising, full curve, poor fit]
25 | Nn1c(Cc2cccc3ccccc23)nnc1SCC(=O)NCC1CCCO1 (stereo unspecified) | 3.82 | 29.1 µM [falling, single point] | –
26 | Cc1cccc(N2C(=O)CC(c3ccc(F)cc3)C3=C2COC3=O)c1 (stereo unspecified) | – | – | 0.082 µM [falling, full curve, poor fit]
27 | Cn1nnnc1SCC(=O)N(C1CCCCC1)C1CCCCC1 | -19.7 | 29.1 µM [rising, single point] | –
28 | O=C(c1cccc(F)c1)N1CCc2ccccc2C1 | -5.39 | 0.184 µM [falling, full curve, poor fit] | –
29 | O=C(Nc1ccccc1C(F)(F)F)C1CCN(C(=O)Cc2ccccc2)CC1 | 37.5 | 0.58 µM [rising, full curve, poor fit] | –
30 | O=C(CSc1nc2c(c(=O)n1-c1ccc(Cl)cc1)SCC2)NCC1CCCO1 (stereo unspecified) | -20.1 | 23.1 µM [rising, single point] | –
31 | CCn1cc(C(=O)NCc2ccc3c(c2)OCO3)c(=O)c2cc(F)c(N3CCN(C)CC3)cc21 | 1.39 | – | 0.366 µM [falling, full curve]
32 | COc1cc(C=O)cc(OC)c1OS(=O)(=O)c1ccc(NC(C)=O)cc1 | 5.67 | – | 6.51 µM [rising, single point]
33 | CCc1ccc2nc3sc(C(=O)N4CCc5ccccc54)c(N)c3cc2c1 | 14.4 | 2.06 µM [rising, full curve] | –
34 | O=C(Nc1ccc(F)cc1Cl)C1=COCCO1 | 1.61 | – | –
35 | CSc1ccc(Cn2nnc(C(=O)Nc3ccc(C)c(C)c3)c2N)cc1 | 17.5 | 0.00411 µM [rising, full curve, poor fit] | –
36 | CCc1nnc(NC(=O)CCNC(=O)c2ccccc2Cl)s1 | -39.3 | – | –
37 | On1nnc2cc(C(F)(F)F)ccc21 | – | – | 5.17 µM [falling, single point]
38 | CNS(=O)(=O)c1ccc(NC(=S)Nc2ccc3c(c2)OCO3)cc1 | 22.2 | – | –
39 | Clc1ccc(-c2nc(C3CCCCC3)no2)cc1 | -54.2 | 29.1 µM [falling, single point] | 29.1 µM [falling, single point]
40 | Cc1c([N+](=O)[O-])c(C(=O)Sc2ccc(Br)cc2)nn1C | -3.7 | – | –
41 | COCCCN1C(=O)C(=O)/C(=C(/O)c2ccc(OC)cc2)C1c1cccc(OC)c1 (stereo unspecified) | -141 | – | 4.61 µM [falling, partial curve]
42 | O=C(NCc1ccc2c(c1)OCO2)C(=O)Nc1ccccc1 | 27.1 | – | –

Row | Compound | cell number change [%] | AC50 [1] | AC50 [2]
43 | CC1Cc2ccccc2N1CC(=O)NC(=O)NCc1ccccc1 (stereo unspecified) | -11.6 | – | 0.00461 µM [falling, full curve, poor fit]
44 | CCOC(=O)C(NC(=O)Cc1ccccc1)(Nc1cc(C)on1)C(F)(F)F (stereo unspecified) | -18.4 | 11.6 µM [falling, partial curve] | –
45 | CCCn1c(SCC(=O)N2CCN(c3ccc(OC)cc3)CC2)nc2c1c(=O)n(C)c(=O)n2C | -15.6 | – | –
46 | COc1ccc(CCNC(=O)CC(Cc2ccccc2)C(=O)O)cc1OC (stereo unspecified) | 60.4 | – | 29.1 µM [rising, single point]
47 | COc1ccc(C=O)cc1CN1CCCN(Cc2ccccc2F)S1(=O)=O | 54.9 | 6.51 µM [rising, single point] | 11.6 µM [rising, partial curve]
48 | Cc1nn(Cc2ccc(Cl)cc2Cl)c(C)c1NC(=O)CCl | -32.9 | 16.4 µM [falling, partial curve] | 11.6 µM [falling, partial curve]
49 | CCOC(=O)/C(C#N)=C1/SC(CC)C(=O)N1c1ccc(Br)cc1 (stereo unspecified) | 1.84 | – | 1.46 µM [rising, partial curve, poor fit]
50 | COc1ccc(N(C(=O)Cc2cccs2)C2C=CS(=O)(=O)C2)cc1 (stereo unspecified) | 18.8 | 0.411 µM [falling, single point] | –
51 | Cc1ccc(S(=O)(=O)N2CC(O)C2)cc1 | 24 | 0.411 µM [falling, single point] | –
52 | Cc1cc(C(=O)OCC(=O)Nc2cccc(S(=O)(=O)N(C)C)c2)c(C)o1 | 28.7 | 29.1 µM [rising, single point] | –
53 | CCOc1ccc(N(CC(=O)NCC2CCCO2)C(=O)CCC(=O)Nc2nccs2)cc1 (stereo unspecified) | 13.5 | 9.2 µM [rising, single point] | –
54 | CCOc1ccc(C(=O)NCc2ccc3c(c2)OCO3)cc1 | 10.4 | 3.66 µM [rising, full curve] | –
55 | O=C(CN(c1ccccn1)S(=O)(=O)c1ccc(F)cc1)Nc1ccc(F)cc1F | -14 | – | –
56 | Cc1ccc(C)c(S(=O)(=O)N2CCN(CC(=O)NC(=O)NCc3ccccc3)CC2)c1 | 29.3 | 0.184 µM [rising, full curve, poor fit] | –
57 | Cc1ccc(S(=O)(=O)Nc2cc(C)nn2-c2ccccc2)cc1 | -0.26 | 0.164 µM [rising, full curve, poor fit] | –
58 | COc1cc(NC(=O)COc2cc(O)c3c(c2)OC(C)(C)CC3=O)cc(OC)c1 | 1.29 | 29.1 µM [falling, single point] | –
59 | CC(=O)c1c(C)[nH]c(C(=O)CN2C(=O)NC(C)(C)C2=O)c1C | -11.3 | 0.00461 µM [rising, full curve, poor fit] | –
60 | Cc1cc(C(=O)Nc2ccccc2N2CCCCC2)no1 | -3.03 | 6.51 µM [falling, single point] | –
61 | CCOc1ccc(NC(=O)CN(C)C(=O)c2cccnc2Sc2ccc(Cl)cc2)cc1OCC | -11.1 | – | –
62 | Cc1ccc(S(=O)(=O)NCC(=O)Nc2ccc3c(c2)OCCO3)cc1 | 19.1 | 29.1 µM [rising, partial curve, poor fit] | –
63 | Cc1cc(CNC(=O)C2CCC(=O)N(CCc3cccc(F)c3)C2)on1 (stereo unspecified) | -11.9 | – | –

Another view of part of the listing above.
Row	Compound	cell number change [%]	AC50 [1]	AC50 [2]
59	CC(=O)c1c(C)[nH]c(C(=O)CN2C(=O)NC(C)(C)C2=O)c1C	-11.3	0.00461 µM [rising, full curve, poor fit]	–
60	Cc1cc(C(=O)Nc2ccccc2N2CCCCC2)no1	-3.03	6.51 µM [falling, single point]	–
61	CCOc1ccc(NC(=O)CN(C)C(=O)c2cccnc2Sc2ccc(Cl)cc2)cc1OCC	-11.1	–	–

Reference: PubChem BioAssay AID2685 (National Center for Advancing Translational Sciences (NCATS), 2010)
